Assay results reported in PMC10258307.
No constants are given. Whether binding was seen depends on the method and setting. Binding seen in cells or lysates may run through a third protein. Some entries that bind do so weakly or less than the wild type.

Sequences of proteins named here, by UniProt entry; tags and fusion partners are left off. A change or cut given only in a name is not applied to a line headed by its entry.
UniProt P20963: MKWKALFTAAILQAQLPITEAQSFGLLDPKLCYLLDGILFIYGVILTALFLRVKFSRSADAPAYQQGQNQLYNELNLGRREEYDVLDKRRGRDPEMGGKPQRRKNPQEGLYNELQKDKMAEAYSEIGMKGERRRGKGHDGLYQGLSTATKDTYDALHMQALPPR
UniProt P43403: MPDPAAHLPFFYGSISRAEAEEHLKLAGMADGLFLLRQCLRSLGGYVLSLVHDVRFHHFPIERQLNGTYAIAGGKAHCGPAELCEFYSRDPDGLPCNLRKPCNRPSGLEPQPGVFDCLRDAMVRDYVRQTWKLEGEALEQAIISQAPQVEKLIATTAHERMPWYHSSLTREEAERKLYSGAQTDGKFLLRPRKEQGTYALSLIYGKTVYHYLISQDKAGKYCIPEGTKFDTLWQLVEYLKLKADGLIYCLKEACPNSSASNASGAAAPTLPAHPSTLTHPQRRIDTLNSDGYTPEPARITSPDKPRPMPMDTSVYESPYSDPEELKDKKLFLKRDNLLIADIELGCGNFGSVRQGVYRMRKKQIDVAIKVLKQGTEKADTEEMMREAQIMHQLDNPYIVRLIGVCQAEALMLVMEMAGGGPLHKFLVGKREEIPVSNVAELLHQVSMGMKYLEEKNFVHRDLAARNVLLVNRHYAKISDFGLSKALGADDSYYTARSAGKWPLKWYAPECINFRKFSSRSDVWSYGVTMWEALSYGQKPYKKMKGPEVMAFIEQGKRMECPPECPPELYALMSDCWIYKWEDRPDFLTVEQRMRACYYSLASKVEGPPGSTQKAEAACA

Molecular target: TCR ζ chain (human (endogenous in Jurkat)) (UniProt P20963)
Assay: co-IP; TCR ζ immunoprecipitated (anti-TCR ζ clone 6B10.2, magnetic protein AG beads, 4°C) from lysates of 1x10^7 Jurkat cells after a 3 minute anti-CD3 mAb stimulation; IP buffer 0.5% NP-40, 0.5 sodium deoxycholate, 150 mM NaCl, 20 mM Tris pH 8, 1 mM sodium orthovanadate; immunoblot for ζ-associated …

binding	Substance
no binding	R170C ZAP-70 mutant (ectopic, in p116 cells) (from UniProt P43403 1-619)
binds	WT ZAP-70 (ectopic, in p116 cells) (from UniProt P43403 1-619)
binds	ZAP-70 (endogenous, parental Jurkat E6-1) (from UniProt P43403 1-619)
